# Counter-ions that a name gives are not always drawn. The name of at least one read-out is uncertain.
# Sequences of proteins named here, by UniProt entry; tags and fusion partners are left off. Residues count along the entry.
# UniProt Q00960, 27-1482: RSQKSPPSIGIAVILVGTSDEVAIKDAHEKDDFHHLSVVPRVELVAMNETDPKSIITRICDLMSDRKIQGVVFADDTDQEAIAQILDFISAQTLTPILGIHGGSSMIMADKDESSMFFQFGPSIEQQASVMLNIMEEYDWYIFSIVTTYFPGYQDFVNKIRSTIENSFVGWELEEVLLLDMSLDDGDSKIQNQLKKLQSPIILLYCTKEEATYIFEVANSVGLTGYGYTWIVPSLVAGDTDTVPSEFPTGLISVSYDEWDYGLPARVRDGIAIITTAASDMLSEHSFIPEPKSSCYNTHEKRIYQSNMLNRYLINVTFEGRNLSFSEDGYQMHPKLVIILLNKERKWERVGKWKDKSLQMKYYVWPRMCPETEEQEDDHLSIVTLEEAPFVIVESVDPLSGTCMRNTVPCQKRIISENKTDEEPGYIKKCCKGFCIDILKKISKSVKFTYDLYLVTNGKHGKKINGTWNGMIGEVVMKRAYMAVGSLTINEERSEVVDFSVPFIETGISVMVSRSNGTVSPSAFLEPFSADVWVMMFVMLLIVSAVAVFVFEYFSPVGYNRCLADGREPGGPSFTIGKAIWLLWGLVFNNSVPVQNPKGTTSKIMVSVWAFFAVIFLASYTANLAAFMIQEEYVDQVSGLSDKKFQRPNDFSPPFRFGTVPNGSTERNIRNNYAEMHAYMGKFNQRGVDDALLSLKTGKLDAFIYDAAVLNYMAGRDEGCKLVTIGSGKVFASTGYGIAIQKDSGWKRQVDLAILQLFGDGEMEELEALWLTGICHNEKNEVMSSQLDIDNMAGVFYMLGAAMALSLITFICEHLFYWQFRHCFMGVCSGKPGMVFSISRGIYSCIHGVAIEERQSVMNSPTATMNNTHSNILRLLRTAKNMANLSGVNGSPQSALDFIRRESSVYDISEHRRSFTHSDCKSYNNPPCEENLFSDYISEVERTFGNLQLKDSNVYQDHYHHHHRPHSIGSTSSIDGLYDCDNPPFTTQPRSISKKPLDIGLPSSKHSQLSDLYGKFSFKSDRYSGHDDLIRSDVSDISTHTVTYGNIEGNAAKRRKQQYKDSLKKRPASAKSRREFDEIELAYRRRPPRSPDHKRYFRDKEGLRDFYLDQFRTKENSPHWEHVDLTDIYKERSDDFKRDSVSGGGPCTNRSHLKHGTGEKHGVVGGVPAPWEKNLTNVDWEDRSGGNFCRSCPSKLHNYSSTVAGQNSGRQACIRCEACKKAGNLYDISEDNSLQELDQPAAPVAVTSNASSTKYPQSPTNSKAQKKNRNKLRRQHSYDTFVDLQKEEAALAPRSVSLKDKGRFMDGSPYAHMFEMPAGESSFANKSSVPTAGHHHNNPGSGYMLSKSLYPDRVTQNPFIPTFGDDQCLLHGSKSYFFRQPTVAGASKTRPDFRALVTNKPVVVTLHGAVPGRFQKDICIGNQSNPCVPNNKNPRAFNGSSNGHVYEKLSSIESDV
# UniProt Q00961, 20-1237: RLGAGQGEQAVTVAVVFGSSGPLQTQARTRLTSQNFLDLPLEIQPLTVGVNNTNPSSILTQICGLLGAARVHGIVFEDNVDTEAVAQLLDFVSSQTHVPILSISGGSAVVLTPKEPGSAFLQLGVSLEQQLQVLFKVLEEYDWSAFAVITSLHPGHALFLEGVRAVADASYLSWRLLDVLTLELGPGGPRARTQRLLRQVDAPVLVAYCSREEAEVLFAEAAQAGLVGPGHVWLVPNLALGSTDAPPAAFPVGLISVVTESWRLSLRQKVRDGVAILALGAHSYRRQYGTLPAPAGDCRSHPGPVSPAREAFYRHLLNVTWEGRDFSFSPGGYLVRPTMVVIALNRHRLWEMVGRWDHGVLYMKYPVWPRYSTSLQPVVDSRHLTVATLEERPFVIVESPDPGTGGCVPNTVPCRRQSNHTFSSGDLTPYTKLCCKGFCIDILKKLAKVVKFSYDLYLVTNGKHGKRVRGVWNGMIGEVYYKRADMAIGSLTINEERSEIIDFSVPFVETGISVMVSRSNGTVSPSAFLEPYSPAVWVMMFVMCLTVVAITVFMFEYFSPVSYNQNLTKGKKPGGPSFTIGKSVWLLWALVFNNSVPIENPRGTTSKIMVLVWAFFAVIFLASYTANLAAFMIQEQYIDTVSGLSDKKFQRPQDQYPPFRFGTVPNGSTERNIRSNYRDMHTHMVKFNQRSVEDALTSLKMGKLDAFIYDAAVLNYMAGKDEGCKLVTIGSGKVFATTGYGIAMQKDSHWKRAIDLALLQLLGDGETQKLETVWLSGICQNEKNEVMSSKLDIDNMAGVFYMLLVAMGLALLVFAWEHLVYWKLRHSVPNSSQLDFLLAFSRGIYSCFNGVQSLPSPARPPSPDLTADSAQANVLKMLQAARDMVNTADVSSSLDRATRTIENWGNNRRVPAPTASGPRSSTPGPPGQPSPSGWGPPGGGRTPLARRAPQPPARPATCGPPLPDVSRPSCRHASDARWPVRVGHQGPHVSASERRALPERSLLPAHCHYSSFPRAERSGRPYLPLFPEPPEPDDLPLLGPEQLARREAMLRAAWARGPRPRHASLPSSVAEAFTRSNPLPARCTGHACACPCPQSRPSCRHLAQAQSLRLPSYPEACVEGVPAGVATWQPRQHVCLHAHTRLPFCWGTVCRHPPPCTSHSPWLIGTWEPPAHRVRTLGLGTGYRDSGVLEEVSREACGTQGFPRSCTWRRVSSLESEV
# UniProt Q00959, 23-1464: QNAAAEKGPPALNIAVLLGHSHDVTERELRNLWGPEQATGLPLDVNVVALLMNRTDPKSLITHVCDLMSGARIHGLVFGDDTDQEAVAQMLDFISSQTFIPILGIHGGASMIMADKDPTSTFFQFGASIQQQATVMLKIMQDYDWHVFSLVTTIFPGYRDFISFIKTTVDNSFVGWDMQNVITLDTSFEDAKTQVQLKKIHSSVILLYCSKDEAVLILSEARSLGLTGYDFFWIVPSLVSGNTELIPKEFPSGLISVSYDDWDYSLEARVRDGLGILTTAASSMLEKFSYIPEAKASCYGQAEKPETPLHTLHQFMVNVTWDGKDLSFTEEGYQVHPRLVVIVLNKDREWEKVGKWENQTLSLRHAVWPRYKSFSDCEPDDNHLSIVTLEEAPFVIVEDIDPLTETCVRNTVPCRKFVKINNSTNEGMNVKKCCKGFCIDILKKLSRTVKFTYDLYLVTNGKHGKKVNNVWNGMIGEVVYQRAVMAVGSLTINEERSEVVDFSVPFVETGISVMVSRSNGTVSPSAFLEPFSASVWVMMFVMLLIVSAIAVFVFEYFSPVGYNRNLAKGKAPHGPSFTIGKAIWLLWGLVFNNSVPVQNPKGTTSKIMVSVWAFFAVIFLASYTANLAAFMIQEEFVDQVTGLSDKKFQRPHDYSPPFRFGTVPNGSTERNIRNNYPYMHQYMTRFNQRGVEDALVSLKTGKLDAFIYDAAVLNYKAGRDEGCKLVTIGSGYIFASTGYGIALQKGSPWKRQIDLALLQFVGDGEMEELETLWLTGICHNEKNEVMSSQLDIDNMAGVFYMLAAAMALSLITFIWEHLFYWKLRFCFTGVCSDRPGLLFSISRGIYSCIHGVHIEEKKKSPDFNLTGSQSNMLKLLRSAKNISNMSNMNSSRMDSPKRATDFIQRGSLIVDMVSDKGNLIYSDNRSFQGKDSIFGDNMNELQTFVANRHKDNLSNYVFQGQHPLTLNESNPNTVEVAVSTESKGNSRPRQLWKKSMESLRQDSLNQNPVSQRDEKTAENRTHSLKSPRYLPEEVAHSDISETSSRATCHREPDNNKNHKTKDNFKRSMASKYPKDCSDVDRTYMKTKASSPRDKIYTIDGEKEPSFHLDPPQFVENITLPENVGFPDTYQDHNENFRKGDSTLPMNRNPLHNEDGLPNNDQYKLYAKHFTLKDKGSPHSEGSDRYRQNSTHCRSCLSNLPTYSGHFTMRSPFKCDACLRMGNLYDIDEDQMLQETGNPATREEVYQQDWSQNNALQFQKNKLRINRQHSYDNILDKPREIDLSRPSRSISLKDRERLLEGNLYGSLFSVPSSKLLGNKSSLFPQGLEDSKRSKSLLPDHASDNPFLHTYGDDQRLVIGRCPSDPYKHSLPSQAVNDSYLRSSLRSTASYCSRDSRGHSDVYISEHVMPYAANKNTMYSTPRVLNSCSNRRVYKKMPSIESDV
# UniProt Q62645, 28-1323: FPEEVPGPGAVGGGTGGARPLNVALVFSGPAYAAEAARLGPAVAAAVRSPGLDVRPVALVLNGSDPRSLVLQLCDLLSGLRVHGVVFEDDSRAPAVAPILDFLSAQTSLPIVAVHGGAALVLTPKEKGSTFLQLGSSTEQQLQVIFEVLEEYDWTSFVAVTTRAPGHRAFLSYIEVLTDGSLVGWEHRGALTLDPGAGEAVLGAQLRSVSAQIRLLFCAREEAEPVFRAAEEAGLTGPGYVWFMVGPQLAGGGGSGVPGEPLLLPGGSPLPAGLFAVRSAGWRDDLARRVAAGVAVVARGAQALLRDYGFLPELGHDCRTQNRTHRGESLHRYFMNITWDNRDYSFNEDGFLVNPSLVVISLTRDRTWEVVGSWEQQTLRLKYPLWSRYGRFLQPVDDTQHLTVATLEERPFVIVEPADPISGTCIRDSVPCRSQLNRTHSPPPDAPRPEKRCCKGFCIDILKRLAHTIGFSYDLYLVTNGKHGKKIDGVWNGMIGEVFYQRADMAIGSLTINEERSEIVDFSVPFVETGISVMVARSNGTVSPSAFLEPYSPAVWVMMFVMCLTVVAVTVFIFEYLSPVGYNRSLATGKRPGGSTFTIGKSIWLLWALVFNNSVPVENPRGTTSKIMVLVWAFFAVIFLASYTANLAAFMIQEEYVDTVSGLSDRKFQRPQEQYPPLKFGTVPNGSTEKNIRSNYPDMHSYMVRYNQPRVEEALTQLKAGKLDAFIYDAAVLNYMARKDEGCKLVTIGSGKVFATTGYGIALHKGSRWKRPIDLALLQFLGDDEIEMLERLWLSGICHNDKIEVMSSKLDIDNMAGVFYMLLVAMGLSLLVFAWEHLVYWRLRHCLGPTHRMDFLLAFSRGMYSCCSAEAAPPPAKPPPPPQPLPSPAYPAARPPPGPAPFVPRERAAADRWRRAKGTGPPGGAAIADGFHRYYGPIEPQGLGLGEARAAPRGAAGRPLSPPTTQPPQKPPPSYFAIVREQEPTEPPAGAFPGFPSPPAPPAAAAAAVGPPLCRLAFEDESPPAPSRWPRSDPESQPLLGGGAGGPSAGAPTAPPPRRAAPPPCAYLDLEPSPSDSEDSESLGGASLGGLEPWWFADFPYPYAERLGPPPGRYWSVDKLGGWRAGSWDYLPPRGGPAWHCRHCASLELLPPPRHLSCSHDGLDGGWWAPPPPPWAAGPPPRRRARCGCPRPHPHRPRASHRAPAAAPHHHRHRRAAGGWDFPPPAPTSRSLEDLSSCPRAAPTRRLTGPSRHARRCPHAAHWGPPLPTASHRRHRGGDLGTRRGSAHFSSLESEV
# Columns and labels:
# NR1/NR2B (NR1100) = NR1/NR2B (NR1100) (Rattus norvegicus, UniProt P35439+Q00960)
# NR1/NR2C (NR1100) = NR1/NR2C (NR1100) (Rattus norvegicus, UniProt P35439+Q00961)
# NR1/NR2A (NR1100) = NR1/NR2A (NR1100) (Rattus norvegicus, UniProt P35439+Q00959)
# NR1/NR2D (NR1100) = NR1/NR2D (NR1100) (Rattus norvegicus, UniProt P35439+Q62645)
smiles,measurement,setting,value
"CC(=O)[C@H]1CC[C@H]2[C@@H]3CC[C@@H]4C[C@H](OS(=O)(=O)O)CC[C@]4(C)[C@H]3CC[C@]12C [3α5βS, 3α5β-pregnanolone sulfate]",log 3α5βS EC50,NR1/NR2B (NR1100),−4.42 ± 0.11
same,log 3α5βS EC50,NR1/NR2C (NR1100),−4.93 ± 0.03
same,log 3α5βS EC50,NR1/NR2A (NR1100),−4.20 ± 0.06
same,log 3α5βS EC50,NR1/NR2D (NR1100),−4.85 ± 0.03

# Reference: patent US6623933B1 (priority 1999, dated 2003)
